# No constants are given. Whether binding was seen depends on the method and setting. Binding seen in cells or lysates may run through a third protein. Binding can be weak; no strength is given.
# Protein sequences, listed by entry. Tags and fused reporters are not part of them. Lines headed by an entry give the natural chain unless they say otherwise; changes in a name come on top. Residues count along the entry.
# UniProt P06213, residues 763-1382: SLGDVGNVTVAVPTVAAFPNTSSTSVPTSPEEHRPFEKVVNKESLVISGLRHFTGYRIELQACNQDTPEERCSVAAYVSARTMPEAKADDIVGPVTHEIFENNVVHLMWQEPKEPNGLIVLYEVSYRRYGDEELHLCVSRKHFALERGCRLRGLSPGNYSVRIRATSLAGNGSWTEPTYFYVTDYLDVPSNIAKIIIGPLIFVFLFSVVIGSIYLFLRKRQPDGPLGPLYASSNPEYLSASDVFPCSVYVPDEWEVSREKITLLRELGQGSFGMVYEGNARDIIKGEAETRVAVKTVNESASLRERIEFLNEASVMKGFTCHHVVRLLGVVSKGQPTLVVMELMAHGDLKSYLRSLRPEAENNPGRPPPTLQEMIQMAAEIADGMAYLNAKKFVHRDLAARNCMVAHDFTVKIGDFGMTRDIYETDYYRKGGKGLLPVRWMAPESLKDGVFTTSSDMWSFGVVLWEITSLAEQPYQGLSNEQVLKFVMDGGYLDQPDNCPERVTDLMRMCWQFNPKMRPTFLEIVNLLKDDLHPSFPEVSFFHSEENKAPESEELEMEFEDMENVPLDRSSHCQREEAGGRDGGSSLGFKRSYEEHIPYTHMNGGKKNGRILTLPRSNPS
# UniProt Q8TCQ1: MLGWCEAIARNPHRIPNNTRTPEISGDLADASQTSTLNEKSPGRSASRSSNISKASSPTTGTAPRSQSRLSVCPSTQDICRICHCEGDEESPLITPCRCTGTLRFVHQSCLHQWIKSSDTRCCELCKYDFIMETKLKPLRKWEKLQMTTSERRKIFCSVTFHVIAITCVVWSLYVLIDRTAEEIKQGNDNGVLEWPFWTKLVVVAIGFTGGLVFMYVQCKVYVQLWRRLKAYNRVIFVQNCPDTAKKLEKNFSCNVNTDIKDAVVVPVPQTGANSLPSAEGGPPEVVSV
# Biological target: INSRβ (insulin receptor beta subunit), endogenous (human (endogenous in HeLa and HepG2)) (UniProt P06213)
# Experiment: co-IP; HeLa or HepG2 cells, untransfected or transfected with MARCH1 or MARCH1 deletion constructs, 5 μM MG132 overnight; IP Lysis buffer (Pierce); immunoprecipitation with IgG or anti-INSRβ antibody and protein G-agarose beads; immunoblot
row,binding,Substance
1,binds,MARCH1ΔRING-YFP (from UniProt Q8TCQ1) (enzyme)
2,binds,MARCH1ΔC-Term-YFP (from UniProt Q8TCQ1) (enzyme)

# From paper PMC5013666
